Screen size: about 410,000 compounds; about 18,000 (4.4%) were called active. Inconclusive results, whose numbers are uncertain, are shown with a selection of clear calls. Cut-off read from the data, not from the text of the source: active = activity change below about -60%; inconclusive = no clear call, values can overlap the other calls; inactive = above about -39%. The source holds several records for some structures; these can differ, active in one and inactive in another.
Experiment: qHTS Assay for inhibitors of the human cytomegalovirus (HCMV)
Conditions: HFF cells, HCMV-luciferase reporter, 72 h; at 57.5 µM; hits give low values
How it was run: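 Compounds were evaluated in HFFs infected with an HCMV luciferase reporter virus (MOI 1 PFU/cell). Luciferase in lysates collected 72 h post infection served as the replication measure.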
% is set by controls: 0 for no effect and ±100 for the full control effect.

SMILES | activity change, negative = inhibition
C/C(=N\O)c1cccc(Br)c1 | inactive: 5.27%
Cc1ccc(S(=O)(=O)C2(C(=O)Nc3cccc(F)c3)CC2)cc1 | inconclusive: -41.8%
Cc1sc2ncnc(SCC(=O)Nc3ccc(CN4CCCC4)cc3)c2c1C | inconclusive: 0%
O=C(NCCCc1ccncc1)C1CCC(=O)N(Cc2ccc(Cl)cc2)C1 (centres undefined) | inactive: 23.9%
Nc1nc(NCCCN2CCOCC2)nc(Nc2ccccc2F)c1[N+](=O)[O-] | inconclusive: -42.7%
CCCCOc1ccc(C(=O)N2CC(=O)Nc3ccc(Br)cc3C2c2ccc(F)cc2)cc1 (centres undefined) | inconclusive: -41%
Cc1nc(Nc2ccc(Cl)c(Cl)c2)sc1C(=O)Nc1ccccc1 | active: -89.3%
Cc1cc(=O)n2nc(N3CCCC3C(=O)Nc3ccccc3C)sc2n1 (centres undefined) | inconclusive: -59.7%
Cc1cccc(OCCn2nnc3ccccc32)c1C | inactive: 52.8%
CC1(C(=O)Nc2cccc(NS(C)(=O)=O)c2)CCN1Cc1ccccc1OC(F)F (centres undefined) | inconclusive: -49.2%
CCN(CC)C(=O)C(=O)c1cn(CC(=O)N2CCc3ccccc3C2)c2ccccc12 | inconclusive: -56.1%
O=C(Cc1nc2ccccc2[nH]1)c1cccc([N+](=O)[O-])c1 | inactive: -16.9%
O=C(CSc1nnc(-c2ccc(O)cc2)n1Cc1ccco1)c1cccs1 | inactive: -35.7%
COc1ccccc1N(C)S(=O)(=O)c1ccc(C(=O)O)cc1 | inconclusive: -41.9%
CCC1=NN(C(=O)Cc2ccccc2)C(O)(c2ccncc2)C1 (centres undefined) | inconclusive: -43.4%
Cc1nnc(NCc2ccc(Cl)cc2)c2c1nnn2Cc1ccc(F)cc1 | inactive: 0.715%
O=C(/C=C/c1ccccc1)C1=C(O)C(=O)N(CCO)C1c1ccc2c(c1)OCO2 (centres undefined) | inconclusive: -49.8%
CSCC[C@H](NC(=O)COc1cc2c(c3oc(=O)c(C)c(C)c13)CCC(C)(C)O2)C(=O)O | inconclusive: -48.6%
O=[N+]([O-])c1ccc(Nc2nccc(Cl)n2)cc1 | inconclusive: -44.2%
CC1=C(C(=O)Nc2cccnc2)C(c2ccccc2)n2nc(SCc3ccccc3)nc2N1 (centres undefined) | inactive: 7.78%
Cc1cccc(NS(=O)(=O)c2ccc(-c3cnc(C4CC4)o3)cc2)c1 | inconclusive: -51.5%

SMILES | activity change, negative = inhibition
O=C(Nc1ccc(F)c(Cl)c1)C1CCN(C(=O)c2ccc(F)cc2)CC1 | inconclusive: -41.5%
COc1cc(NC(=O)c2ccco2)c(OC)cc1NC(=O)CSc1nnc(-c2cccs2)n1C | inconclusive: -41.5%
CCc1ccc2nc(NC(=O)c3cc(C)on3)sc2c1 | inactive: 102%
CCC(C)NC(=O)CCc1c(C)nc2c(c(C)nn2-c2ccccc2)c1C (centres undefined) | inconclusive: -56.2%
COc1ccc(N(CC(=O)Nc2cc([N+](=O)[O-])ccc2C)S(C)(=O)=O)cc1OC | inconclusive: -44.8%
O=C(Nc1ccc(S(=O)(=O)N2CCOCC2)cc1)C1CCN(S(=O)(=O)c2ccccc2)CC1 | inactive: 2.13%
CC1CC(NC(=O)CCn2c(=O)oc3ccccc32)CC(C)(C)C1 (centres undefined) | inconclusive: -45.4%
Cc1cc(C(=O)NCc2ccccc2)no1 | inactive: 76.8%
CC(C)C(c1nnnn1C(C)(C)C)N1CCC(Cc2ccccc2)CC1 (centres undefined) | inconclusive: -56.3%
COc1cccc(-n2c(/C=C/c3ccccc3O)nc3ccccc3c2=O)c1 | inconclusive: -55.6%
C=CCC[C@H](Cc1ccc(F)cc1)C(=O)OC[C@@H](Cc1c[nH]c2ccccc12)NC(=O)[C@@H](CC=C)CC(=O)N(CCO)Cc1ccccc1 | inactive: 39.5%
O=C(N/N=C/c1cccnc1)c1ccc(NC(=O)c2ccc(F)cc2)cc1 | inconclusive: -43%
Cn1c(=O)oc2cc(S(=O)(=O)Nc3ccc4c(c3)OCO4)ccc21 | inconclusive: -53.4%
CCOC(=O)c1ccc(NC(=S)N2CCC(C(N)=O)(N3CCCCC3)CC2)cc1 | inconclusive: -57.5%
CCN(CC)c1ccc(-n2c(C)c(C(C)=O)c(C(C)=O)c2C)cc1 | active: -62.6%
O=C(Nc1nonc1-c1ccc(Cl)cc1)c1ccccc1F | active: -68.2%
c1csc(-c2nnc(N3CCOCC3)c3ccccc23)c1 | inconclusive: -40.3%
CCc1nnc(SCc2cccc(F)c2)c2cc3sc(C)cc3n12 | inconclusive: -43%
COc1cccc2cc(S(=O)(=O)c3ccc(C)cc3)/c(=N/NS(=O)(=O)c3ccc(C)cc3)oc12 | inconclusive: -43.1%
O=C(N[C@H]1C/C=C\C[C@H](CC(=O)N(CCO)Cc2ccccc2)C(=O)N[C@H](Cc2c[nH]c3ccccc23)COC1=O)OCC1c2ccccc2-c2ccccc21 | inconclusive: -44.4%
COc1ccc(CC(=O)Nc2ccccc2NC(=O)c2ccco2)cc1OC | inconclusive: -47.9%

SMILES | activity change, negative = inhibition
CCCc1c(C)nc2ccccc2c1SCCC#N | active: -85.4%
COc1cc(OC)c(NC(=O)C(c2ccccc2)N2Cc3ccccc3C2=O)cc1Cl (centres undefined) | inconclusive: -49%
CCN(C/C=C/c1ccccc1OC)Cc1ccccc1 | inactive: -12.4%
CCC(=O)N1CCN(c2ccccc2NC(=O)COc2cccc(C)c2)CC1 | inconclusive: -53.9%
COc1ccc(N(CC(=O)NCCc2ccccc2)S(=O)(=O)c2ccc(OC)c(OC)c2)cc1 | inactive: -3.86%
O=C(Nc1ccc(Cl)cc1)c1cc(S(=O)(=O)N2CCOCC2)cs1 | inconclusive: -48%
COC(=O)c1ccc2c(=O)n(Cc3ccco3)c(SCC(=O)Nc3cc(C)on3)nc2c1 | active: -94.9%
COc1cc(OC)c(OC)cc1CCC(C)NCCC(c1ccccc1)c1ccccc1 (centres undefined) | active: -60.1%
CC(C)CCNC(=O)c1ccc(OC2CCN(S(=O)(=O)N(C)C)CC2)cc1 | inconclusive: -51.3%
COc1cc(NC(=S)Nc2cccc(C)n2)cc(OC)c1OC | inconclusive: -43.2%
CCCOc1ccc(C(=O)Nc2ccc3nn(-c4ccc(OC)c(Cl)c4)nc3c2)cc1 | inactive: 0.226%
CC1CN(C(=O)c2ccccc2Nc2ccc(SC(F)F)cc2)CC(C)O1 (centres undefined) | inconclusive: -48.7%
CCOc1ccc(-c2nnc(SCC(=O)Nc3cc(F)ccc3F)o2)cc1 | inconclusive: -45.4%
COCCCNC(=O)c1ccc(Cn2c(=O)c3ccccc3n(Cc3ccccc3C)c2=O)cc1 | active: -95.5%
O=C(CSc1nnc(NC(=O)C2CC2)s1)Nc1ccccc1Cl | active: -63.5%
Cc1cc(Nc2cccc(Br)c2)c2ccccc2n1 | active: -71.5%
O=C1N(Cc2ccccc2)CCCC12CCCN(Cc1ccccc1)C2=O | inconclusive: -57.2%
Cc1ccccc1C(=O)NC(=S)Nc1ccc(Oc2ccc(Cl)cc2)cc1 | inconclusive: -45.9%
O=C(Nc1cc(S(=O)(=O)N2CCCCC2)ccc1N1CCOCC1)c1cc(=O)[nH]c2ccccc12 | inconclusive: -50.6%
O=C(CN1C(=O)c2cccc3cccc1c23)Nc1ccccc1 | inconclusive: -54.9%
Cc1cnc(C(=O)Nc2cc(F)ccc2C)cn1 | inconclusive: -42%

Already shown: six of the compounds above.
SMILES | activity change, negative = inhibition
COc1cc(OC)c(OC)cc1CCC(C)NCCC(c1ccccc1)c1ccccc1 (centres undefined) | active: -60.1%
CC(C)CCNC(=O)c1ccc(OC2CCN(S(=O)(=O)N(C)C)CC2)cc1 | inconclusive: -51.3%
COc1cc(NC(=S)Nc2cccc(C)n2)cc(OC)c1OC | inconclusive: -43.2%
CCCOc1ccc(C(=O)Nc2ccc3nn(-c4ccc(OC)c(Cl)c4)nc3c2)cc1 | inactive: 0.226%
CC1CN(C(=O)c2ccccc2Nc2ccc(SC(F)F)cc2)CC(C)O1 (centres undefined) | inconclusive: -48.7%
CCOc1ccc(-c2nnc(SCC(=O)Nc3cc(F)ccc3F)o2)cc1 | inconclusive: -45.4%

More entries follow:

SMILES | activity change, negative = inhibition
O=C1/C(=C/c2ccc([N+](=O)[O-])cc2)C=C(c2ccccc2)N1c1ccc(O)cc1 | active: -82.8%
Cc1ccc(S(=O)(=O)CCC(=O)Nc2ccccc2Br)cc1 | inconclusive: -57.4%
C[C@@H]1CN([C@H](C)CO)S(=O)(=O)c2ccc(C#Cc3ccccc3F)cc2O[C@@H]1CN(C)C(=O)Cc1ccccc1 | inconclusive: -49.8%
COc1ccc(CNC(=O)c2sc(=O)n(Cc3ccc(-c4ccccc4)cc3)c2C)cc1OC | inconclusive: -55.8%
CCOC(=O)N1CCN(S(=O)(=O)c2ccc(C(=O)Nc3ccc(F)cc3F)cc2)CC1 | inconclusive: -53.3%
CN(C)CCN(Cc1ccccc1)S(=O)(=O)c1ccc(-c2cc(C(F)(F)F)on2)s1 | active: -100%
COc1ccccc1C(C)NC(=O)c1ccccc1SCC(=O)N1CCCC1 (centres undefined) | inactive: -15%
Cc1sc(NC(=O)c2cccc([N+](=O)[O-])c2)c(C(N)=O)c1-c1ccc(C(C)(C)C)cc1 | inconclusive: -45.9%
CC1(C)CC2CC(C)(CN2/C=N/c2sc3c(c2C#N)CC(C)(C)NC3(C)C)C1 (centres undefined) | active: -88.2%
Cc1ccc(Cl)cc1N(C)C(=O)c1noc2c1CCCCC2 | active: -64.3%
COc1ccc(-n2cc(C(=O)N(C)c3cc(C)ccc3OC)c3ccccc3c2=O)cc1 | active: -84.9%
COCCNC(=S)NNC(=O)c1cc(-c2cccnc2)nc2ccccc12 | inactive: -0.596%
Cn1c(=O)c2c(SCC(=O)NC3CCCC3)nc(CC(C)(C)C)nc2n(C)c1=O | inconclusive: -58.6%
COc1cccc(N2CCN(C(=O)C3CCN(S(=O)(=O)c4ccc5c(c4)CC(C)N5C(C)=O)CC3)CC2)c1 (centres undefined) | inactive: -20.3%
Cc1c(C(=O)N2CCCC2)c(S(=O)(=O)N2CCCCC2)c(C)n1C | inactive: 0%
Cc1ccc(NC2=C(NC(=O)c3ccccc3)C(=O)c3ccccc3C2=O)cc1Cl | inconclusive: -40.9%
COc1ccc(C(=O)Nc2ccc(C(=O)O)cc2NC(=O)c2ccc(OC)cc2)cc1 | inactive: 12.3%
COc1cc(C(=O)COC(=O)C2CCCCC2)cc(OC)c1OC | inactive: 5.29%
O=C(C1CCC(C(=O)N2CCc3ccccc32)CC1)N1CCc2ccccc21 (centres undefined) | inactive: -20%
CC(=O)Nc1ccc(NC(=O)c2ccc(CN3CCc4ccccc4C3)cc2)cc1 | inactive: -17.1%
Cc1c(CCO)sc[n+]1CC(=O)OC12CC3CC(CC(C3)C1)C2 | inconclusive: -54.5%

Reference: PubChem BioAssay AID1259415 (National Center for Advancing Translational Sciences (NCATS), 2018)
